Hit rate of the full screen: of about 390,000 compounds, about 610 (0.16%) were called active. This list was built around the results that the source calls inconclusive (neither active nor inactive); the mix of calls is not that of the screen. The call rests on the fitted dose curve; in most records, active means well fitted inhibition curve with a large enough effect; inconclusive means small, poorly fitted or top-dose-only effect, or effect the other way, or another doubt; inactive means no such curve, though single readings can be large or run the other way. Potencies of inconclusive entries are doubtful fits and often do not repeat.
Experiment: Nrf2 qHTS screen for inhibitors: counterscreen for cytotoxicity
Conditions: A549 ARE-Fluc cells, CellTiter-Fluor viability, 18-24 h; activity change, negative = cytotoxicity: at 46 µM (top of the series)
How it was run: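 Cytotoxicity counterscreen: CellTiter-Fluor fluorescence was measured in A549 ARE_Fluc cells after 18-24 h of compound exposure in a concentration series. The subsequent BugLite luminescent read reports ARE-luciferase activity.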
In the case of N#Cc1ccc(NC(=O)C2Cc3ccccc3CN2S(=O)(=O)c2ccc(F)cc2)cc1 (stereo not given), the Potency is reported as inconclusive: 13 µM [falling, partial curve, poor fit].
In the case of FC(F)(F)c1cc(-c2ccco2)nc(-n2cnc3ccccc32)n1, the “activity change, negative = cytotoxicity” value is reported as inactive: 8.37%.
For CC(C)c1cc(-c2cc(C(=O)NCc3ccccc3)on2)nc(NCC2CC2)n1, the “activity change, negative = cytotoxicity” value was inactive: 7.61%.
With Cc1cc(SCC(=O)Nc2ccc(O)cc2)n2nc(C)c(-c3ccccc3)c2n1 the Potency was inconclusive: 20.6 µM [falling, partial curve, poor fit].
In the case of CCOC(=O)c1cc(-c2ccc(C)cc2)n(CCC(=O)NCCc2ccc(C)cc2)c1C, the Potency is reported as inconclusive: 20.6 µM [falling, partial curve, poor fit].
For CCN(CC)CCN1C(=O)C2C(C(=O)Nc3cccc(C)c3)C3C=CC2(O3)C1C(=O)NC1CCCC(C)C1C (stereo not given), the Potency was inconclusive: 20.6 µM [falling, partial curve, poor fit].
In the case of CNc1ccccc(C(=O)/C=C/c2ccccc2OC)c1=O, the Potency is reported as inconclusive: 32.6 µM [falling, single point].
For O=C(C[C@H]1C[C@H](C(=O)N2CCCCC2)[C@@]2(CCc3ccccc3)c3[nH]c4ccc(Cl)cc4c3CCN2C1=O)NCCc1ccccn1, the Potency was inconclusive: 23.1 µM [falling, single point].
For CC(=O)Nc1ccc(SCC(=O)c2cc(C)n(-c3ccccc3)c2C)cc1, the “activity change, negative = cytotoxicity” value was inactive: 0.186%.
With Nc1ccc(-c2cnc(N)c(C(=O)c3cccnc3)n2)cn1 the Potency was inconclusive: 18.4 µM [falling, partial curve, poor fit].
For Cc1cnc(C(=O)Oc2c(C)ccc(C)c2C)cn1, the Potency was inconclusive: 6.51 µM [activator, partial curve, poor fit].
In the case of Cc1ccc2c(=O)c(C(=O)c3ccc(Cl)cc3)cn(CC(=O)Nc3ccc4c(c3)OCCO4)c2n1, the “activity change, negative = cytotoxicity” value is reported as inactive: 2.67%.
In the case of O=C(Cc1ccccc1)N/N=C/c1cc(Br)cc(Cl)c1O, the Potency is reported as inconclusive: 18.4 µM [falling, partial curve, poor fit].
In the case of CC(C)c1ccc(N2C=Nc3ccc(C(C)C)cc3C2)cc1, the Potency is reported as inconclusive: 23.1 µM [falling, single point].
With CCOC(=O)C1=C(C)N=c2s/c(=C/c3ccc(OCC(=O)O)cc3)c(=O)n2C1c1ccc(OC)cc1OC (stereo not given) the Potency was inconclusive: 13 µM [falling, single point].
In the case of CC1(C)c2[nH]c3ccccc3c2C[C@@H]2C(=O)N(Cc3ccccc3F)C(=O)N21, the “activity change, negative = cytotoxicity” value is reported as inactive: 7.55%.
With S=C(Nc1ccc(-c2nc3ccccc3[nH]2)cc1)Nc1cccnc1 the Potency was inconclusive: 32.6 µM [falling, partial curve, poor fit].
For CC(C)N1CCN(CCCc2ccccc2)CC1CCO (stereo not given), the Potency was inconclusive: 25.9 µM [activator, single point].
For CC(C)(C)c1ccc(NC(=O)N2CCCN(c3ccc([N+](=O)[O-])cn3)CC2)cc1, the Potency was inconclusive: 20.6 µM [falling, single point].
For CCc1cc(SC#N)cc(C)c1NC(=O)CCl, the Potency was inconclusive: 23.1 µM [falling, single point].
For COc1cc(CN(C2CCCCC2C)S(=O)(=O)c2ccc(S(=O)(=O)NC3CC3)cc2)cc(OC)c1OC (stereo not given), the “activity change, negative = cytotoxicity” value was inactive: -12.2%.
With Cc1ccccc1-n1ncc2c1CC(C)(C)CC2NC(=O)CCC1=NNC(=O)CC1 (stereo not given) the Potency was inconclusive: 6.51 µM [activator, partial curve, poor fit].
For O=C1OCCN1C(=O)[C@H]1[C@H](c2ccccc2)C(c2cccc(Cl)c2)=NN1c1ccc(Br)cc1, the Potency was inconclusive: 7.31 µM [activator, partial curve, poor fit].
For COc1ccc(CC(C)Nc2cccc(SC)c2)cc1 (stereo not given), the Potency was inconclusive: 18.4 µM [activator, partial curve, poor fit].
With CCn1c(C)cc(/C=C2/SC(=O)N(CC(=O)N3CCCC3)C2=O)c1C the Potency was inconclusive: 25.9 µM [falling, single point].
With O=C(NCc1ccccc1)c1cc2ccc(O)cc2oc1=O the Potency was inconclusive: 20.6 µM [activator, single point].
With Cc1ccc(C(=O)Nc2ccc(S(=O)(=O)N(Cc3ccccc3)c3ccccc3)cc2)cc1 the “activity change, negative = cytotoxicity” value was inactive: -0.75%.
With CCc1ccc(-c2nc(CN3CCC(C(=O)NCc4ccco4)CC3)c(C)o2)cc1 the Potency was inconclusive: 29.1 µM [falling, partial curve, poor fit].
In the case of COc1ccc(C2C3=C(CC(C)(C)CC3=O)Nc3c2c(=O)[nH]c2nc(C)nn32)cc1 (stereo not given), the “activity change, negative = cytotoxicity” value is reported as inactive: -2.91%.
With COc1cc(COCC(O)CN2CCN(CCN3C(=O)c4cccc5cccc(c45)C3=O)CC2)cc(OC)c1OC (stereo not given) the “activity change, negative = cytotoxicity” value was inactive: -17%.
With O=C(COC(=O)c1ccccc1)NC12CC3CC(CC(C3)C1)C2 the “activity change, negative = cytotoxicity” value was inactive: -6.69%.
With OCCCc1nc2n(n1)C(c1ccccc1)C=C(c1ccc(F)cc1)N2 (stereo not given) the Potency was inconclusive: 29.1 µM [activator, single point].
With COC(=O)c1ccc2c(=O)n(CCCCCC(=O)N3CCN(c4cccc(C)c4C)CC3)c(=O)[nH]c2c1 the “activity change, negative = cytotoxicity” value was inactive: 3.11%.
With CCOc1cc(CNc2ccc(O)cc2)cc(Cl)c1OCc1ccccc1 the Potency was inconclusive: 23.1 µM [falling, single point].
In the case of CCCCOc1ccc(C(=O)Nc2ccc3c(c2)N(C(C)=O)CCC3)cc1, the “activity change, negative = cytotoxicity” value is reported as inactive: -10.3%.
In the case of CCOCCOC(=O)C1=C(C)NC(=O)NC1c1cc2c(cc1Br)OCO2 (stereo not given), the Potency is reported as inconclusive: 20.6 µM [falling, single point].
In the case of CCC(Cn1nnc2ccccc2c1=O)NC(=O)Nc1ccccc1Cl (stereo not given), the “activity change, negative = cytotoxicity” value is reported as inactive: 9.35%.
For CCOC(=O)c1nnn(-c2nonc2N)c1-c1ccccc1, the Potency was inconclusive: 9.2 µM [activator, partial curve, poor fit].
In the case of Cn1c(-c2ccc(C(C)(C)C)cc2)n[nH]c1=S, the Potency is reported as inconclusive: 29.1 µM [falling, partial curve, poor fit].
For COc1ccc(-n2c(=O)/c(=C\c3cccs3)s/c2=C(/C#N)C(=O)NCCN2CCOCC2)cc1, the “activity change, negative = cytotoxicity” value was inactive: 1.94%.
For COc1cc(NCCCCCCN)c2ncccc2c1OC, the Potency was inconclusive: 23.1 µM [falling, partial curve, poor fit].
In the case of CCN(CC)C(=O)CSc1nc2c(sc(=S)n2CC)c(=O)n1-c1ccccc1, the Potency is reported as inconclusive: 25.9 µM [falling, partial curve, poor fit].
In the case of CCc1ccccc1N1CC(c2nc3ccccc3n2CCCOc2ccc(Cl)cc2)CC1=O (stereo not given), the Potency is reported as inconclusive: 23.1 µM [falling, single point].
With COc1ccc(C(=O)Nc2cc3c(cc2C(=O)c2ccccc2Cl)OCCO3)cc1 the “activity change, negative = cytotoxicity” value was inactive: 1.07%.
For O=C(CSC1=Nc2ccccc2C2=NC(CCC(=O)NC3CCCCC3)C(=O)N12)Nc1cccc(C(F)(F)F)c1 (stereo not given), the Potency was inconclusive: 18.4 µM [falling, partial curve, poor fit].
With COCCNC(=O)C(C#N)c1nc2ccccc2nc1N1CCCCCC1 (stereo not given) the “activity change, negative = cytotoxicity” value was inactive: -14.4%.
With C/C(=N\NC(=O)c1c(Cl)c(C)nn1C)c1ccc(NC(=O)COc2ccc(Cl)cc2C)cc1 the “activity change, negative = cytotoxicity” value was inactive: -13.4%.
With COC(=O)C1=NN[C@H](C(=O)OC(C)(C)C)[C@H]1c1ccccc1 the “activity change, negative = cytotoxicity” value was inactive: 3.56%.
With Cc1ccc(-c2nnc(-n3nnc4ccccc43)c3ccccc23)cc1 the Potency was inconclusive: 20.6 µM [falling, single point].
For NC(=O)c1cnn2c(C(F)(F)F)cc(-c3ccc(F)cc3)nc12, the Potency was inconclusive: 5.17 µM [activator, single point].
In the case of CCN(CC)c1ccc(/C=C(\C#N)C(N)=S)cc1, the Potency is reported as inconclusive: 20.6 µM [falling, single point].
With CC(=O)c1sc2c(c1OC(=O)c1ccc(Cl)cc1Cl)c(=O)n(-c1ccccc1)c(=S)n2-c1ccccc1 the Potency was inconclusive: 9.2 µM [falling, partial curve].
With CC(C)C(=O)OCC(=O)Nc1ccc(N=Nc2ccccc2)cc1 the Potency was inconclusive: 18.4 µM [falling, partial curve, poor fit].
With O=C(/C=C/NNC(=O)c1ccccc1)c1ccc([N+](=O)[O-])cc1 the Potency was inconclusive: 25.9 µM [falling, single point].
In the case of O=S(=O)(Nc1ccc(O)c(Sc2nc3ccccc3s2)c1)c1ccc(Cl)cc1, the Potency is reported as inconclusive: 29.1 µM [falling, single point].
For Cc1ccc(CNC(=O)CCC(=O)N2CC3CCCN3c3ccccc32)cc1 (stereo not given), the “activity change, negative = cytotoxicity” value was inactive: 17.5%.
In the case of CC(C)CC(=O)Nc1nnc(S(=O)(=O)N(CC(C)C)c2ccccc2)s1, the “activity change, negative = cytotoxicity” value is reported as inactive: 15.6%.
With Cc1ccc(N2CC(NC(=O)c3cccc(Cl)c3)CC2=O)cc1C (stereo not given) the “activity change, negative = cytotoxicity” value was inactive: -0.717%.
For COc1ccc(CNC(=O)c2cnn3c(C)c(Cc4c(F)cccc4Cl)c(C)nc23)cc1, the Potency was inconclusive: 23.1 µM [falling, partial curve, poor fit].
For CCC1=C(c2ccc(C)cc2)S(=O)(=O)N=C1N1CCC(C(=O)NCc2ccc(N(C)C)cc2)CC1, the “activity change, negative = cytotoxicity” value was inactive: -0.226%.
For O=S(=O)(Nc1cc(Sc2cccc3cccnc23)c(O)c2ccccc12)c1ccc(F)cc1, the Potency was inconclusive: 29.1 µM [falling, single point].
For O=C(NCc1ccccn1)C1CCCN(S(=O)(=O)c2cc(Cl)ccc2Cl)C1 (stereo not given), the Potency was inconclusive: 18.4 µM [falling, single point].
In the case of CC(C)(C)c1ccc(OCc2ccc(C(=O)N/N=C/c3ccc([N+](=O)[O-])cc3)o2)cc1, the Potency is reported as inconclusive: 23.1 µM [falling, partial curve].
In the case of CCCOC(=O)c1ccc(Oc2cn[nH]c2-c2ccc(OC)cc2O)cc1, the Potency is reported as inconclusive: 29.1 µM [falling, partial curve, poor fit].
For COc1ccc2sc(N(CCCN(C)C)C(=O)c3ccc(S(=O)(=O)N4CCCc5ccccc54)cc3)nc2c1, the Potency was inconclusive: 18.4 µM [falling, single point].
On the % scale 0 is the no-effect control and ±100 the full control effect; potency means the concentration at half of the fitted maximal effect.
